Test results as given in article PMC8413129.
Results are given in words; binding and its absence hold for the method and conditions named. In cells and extracts the contact can be indirect. Some results given as binding are weak or reduced against the parent protein; the word gives no strength. One block for each binder: values may come before it.

How the values were obtained:
[1] = molecular target: p53 protein, endogenous in MCF7 cells (human (endogenous in MCF7)) (UniProt P04637); experiment: co-IP; cells lysed in RIPA buffer with sonication; lysate pre-cleared with A-sepharose magnetic beads, immunoprecipitating antibody added, immune complex separated with A-sepharose magnetic beads, Western blot; MCF7 cells with ectopic ZDHHC1 and HCT116 cells (endogenous proteins)
[2] = molecular target: p53 protein, endogenous in HCT116 cells (human (endogenous in HCT116)) (UniProt P04637); experiment: as above

- binding [1]: binds
B1: Zinc Finger DHHC-Type Containing 1 (ZDHHC1), ectopic (enzyme, UniProt Q8WTX9 1-485)
chain: MYKMNICNKPSNKTAPEKSVWTAPAQPSGPSPELQGQRSRRNGWSWPPHPLQIVAWLLYLFFAVIGFGILVPLLPHHWVPAGYACMGAIFAGHLVVHLTAVSIDPADANVRDKSYAGPLPIFNRSQHAHVIEDLHCNLCNVDVSARSKHCSACNKCVCGFDHHCKWLNNCVGERNYRLFLHSVASALLGVLLLVLVATYVFVEFFVNPMRLRTNRHFEVLKNHTDVWFVFLPAAPVETQAPAILALAALLILLGLLSTALLGHLLCFHIYLMWHKLTTYEYIVQHRPPQEAKGVHRELESCPPKMRPIQEMEFYMRTFRHMRPEPPGQAGPAAVNAKHSRPASPDPTPGRRDCAGPPVQVEWDRKKPLPWRSPLLLLAMWGPQAPPCLCRKRGRGACIKCERLRPRIRRRGLGPPAAAPARRRIPRTPALCTPLALPAPTTRRRQSPWTRFQWRRRAWAAPLWPPRGAGADSPRWRGRRVRPPFS

- binding [2]: binds
B2: Zinc Finger DHHC-Type Containing 1 (ZDHHC1), endogenous in HCT116 cells (enzyme, UniProt Q8WTX9 1-485)
chain: B1 chain
